PubChem BioAssay AID1224830 – NIAID | 2016
The deposit covers about 18,000 reagents; below is a part drawn at random. In the full data, about 2,900 (16%) were called active. 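Calls are made per well; low scores hint the gene aids the LPS response, high scores that it dampens it.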 A number with no mark means an inactive call. Repeated entries: four replicate wells of each siRNA pool.

Aim: 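Host factors that control LPS-induced TNF expression in human macrophages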 (primary screen)
Cell system: human THP-1 monocytic leukaemia cells, TNF dual-luciferase reporter clone, PMA-differentiated to macrophage-like cells
Reagents: siRNA pool against human genes, 50 nM
Timing: LPS for 4 h, given about 3 days after siRNA transfection
Treatment: bacterial LPS (TLR4 ligand), 10 ng/ml
Measurement: 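TNF firefly reporter luminescence divided by renilla, normalised to the plate median, then turned into a robust z-score for each replicate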
Direction: TNF reporter robust z-score: higher = stronger TNF reporter response to LPS
Call rule: 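a well is active when its z-score exceeds 2.8 or falls below -1.5; control wells carry no call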

no.	target	TNF reporter robust z-score
1	ULBP3	0.39
2	ULBP3	0.76
3	ULBP3	1.4
4	ULBP3	0.68
5	PIGM	-0.1
6	PIGM	-0.14
7	PIGM	-1.41
8	PIGM	-1.47
9	SLC17A1	-1
10	SLC17A1	-0.12
11	SLC17A1	-0.65
12	SLC17A1	-1.09
13	WAC	2.6
14	WAC	3.38 (active)
15	WAC	2.59
16	WAC	1.74
17	SMIM43	1.6
18	SMIM43	1.97
19	SMIM43	0.63
20	SMIM43	1.43
21	LIG4	-0.64
22	LIG4	-0.38
23	LIG4	-0.37
24	LIG4	0.39
25	ZBTB12	0.4
26	ZBTB12	0.49
27	ZBTB12	0.51
28	ZBTB12	0.13
29	INHBB	-0.02
30	INHBB	0.05
31	INHBB	-0.39
32	INHBB	-0.18
33	RAC3	0.49
34	RAC3	0.31
35	RAC3	1.46
36	RAC3	1.38
37	LIN9	-1.93 (active)
38	LIN9	-2.1 (active)
39	LIN9	-2.21 (active)
40	RNF126	-0.71
41	RNF126	-0.36
42	RNF126	-1.54 (active)
43	RNF126	1.47
44	KIF5A	-0.85
45	KIF5A	-0.73
46	KIF5A	-1.02
47	KIF5A	-0.56
48	SLC5A3	-0.28
49	SLC5A3	0
50	SLC5A3	-0.42
51	SLC5A3	0.54
52	TRIM6-TRIM34	1.24
53	TRIM6-TRIM34	-1.5
54	TRIM6-TRIM34	0.28
55	TRIM6-TRIM34	2.67
56	MGAT3	-0.71
57	MGAT3	-0.7
58	MGAT3	-1.2
59	MGAT3	0.14
60	UQCRH	-0.44
61	UQCRH	1.52
62	UQCRH	-0.11
63	UQCRH	-0.05
64	IDH3A	-0.29
65	IDH3A	-0.93
66	IDH3A	-0.48
67	IDH3A	-0.99
68	ATF3	-1.53 (active)
69	ATF3	0.13
70	ATF3	-0.19
71	ATF3	-1.27
72	NIPA1	-0.28
73	NIPA1	-0.83
74	NIPA1	-1.25
75	NIPA1	-1.02
76	FAM124A	0.36
77	FAM124A	1.17
78	FAM124A	0.37
79	FAM124A	0.29
80	FBP1	-0.91
81	FBP1	-0.73
82	FBP1	-0.2
83	FBP1	-0.49
84	RUFY4	-1.12
85	RUFY4	-0.94
86	RUFY4	-0.56
87	UTS2	-0.51
88	UTS2	-0.36
89	UTS2	-0.83
90	UTS2	-0.9
91	NDUFV2	-0.99
92	NDUFV2	-1.11
93	NDUFV2	-1.25
94	NDUFV2	-1.03
95	DNAH6	0.12
96	DNAH6	0.27
97	DNAH6	1.22
98	DNAH6	0
99	TPT1P8	1.48
100	TPT1P8	0.83
101	TPT1P8	-0.78
102	TPT1P8	-0.42
103	NEMP1	0.84
104	NEMP1	-0.28
105	NEMP1	-0.43
106	NEMP1	0.87
107	PNPLA5	0
108	PNPLA5	0.9
109	PNPLA5	0.4
110	PNPLA5	1.77
111	PAFAH1B1	0.19
112	PAFAH1B1	1.25
113	PAFAH1B1	1.31
114	PAFAH1B1	2.02
115	MRPS22	-0.23
116	MRPS22	1.54
117	MRPS22	-0.34
118	MRPS22	1.28
119	PSMB2	-1.99 (active)
120	PSMB2	-1.44
121	PSMB2	-1.96 (active)
122	PSMB2	-1.6 (active)
123	GNG2	0.02
124	GNG2	0.87
125	GNG2	0.33
126	GNG2	0.53
127	OR52A5	-1.58 (active)
128	OR52A5	-1.95 (active)
129	OR52A5	-1.49
130	OR52A5	-1.97 (active)
131	TIPIN	-1.49
132	TIPIN	-0.53
133	TIPIN	-1.45
134	TIPIN	-0.74
135	PCDHA6	-0.6
136	PCDHA6	-0.76
137	PCDHA6	-1.19
138	PCDHA6	-0.1
139	BCO2	-0.21
140	BCO2	0.54
141	BCO2	0.71
142	BCO2	0.57
